Laboratory results from patent publication US20220047545A1 (priority 2020, published 2022).
Some results were stated once for a whole list of compounds, not compound by compound.

Legend:
A549 cells = assay: MTT viability assay; conditions: up to 48 h
[1] = test system: lysosomal/endosomal pH in A549 cells; assay: Endosomal/lysosomal pH assay; assay type: cell-based, human; conditions: 5.0-25 μg/ml; control approximately pH=5.0

| SMILES | non-toxic concentrations (A549 cells) [µg/mL] | lysosomal/endosomal pH reached [1] |
| --- | --- | --- |
| Oc1ccc2c(c1)OC[C@]1(O)Cc3cc(O)c(O)cc3[C@H]21 [Brazilin] | 5.0 to 25 | 6.0-6.5 |
| COc1cc(/C=C/C(=O)CC(=O)/C=C/c2ccc(O)c(OC)c2)ccc1O [Curcumin] | 5.0 to 25 | 6.0-6.5 |
